Data taken from PubChem BioAssay AID1259415 (National Center for Advancing Translational Sciences (NCATS), 2018).
Among all 410,000 compounds or so, about 18,000 (4.4%) were called active. Inconclusive means that the source gave no clear call. Such entries were picked first, then a sample of the others. Cut-off read from the data, not from the text of the source: active = activity change below about -60%; inconclusive = no clear call, values can overlap the other calls; inactive = above about -39%.
% is set by controls: 0 for no effect and ±100 for the full control effect.

Test: qHTS Assay for inhibitors of the human cytomegalovirus (HCMV)
Conditions: HFF cells, HCMV-luciferase reporter, 72 h; at 57.5 µM; stronger effect = lower value
How it was run: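 Inhibition of viral replication was scored as loss of reporter luminescence in HFFs infected with HCMV-luciferase (MOI 1 PFU/cell) for 72 h; compounds tested at 2 doses, normalized to buffer and Salinomycin controls.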
In the case of `Nc1nc(Nc2ccccc2)sc1C(=O)c1ccccc1`, the activity change, negative = inhibition was active: -88.3%.
For `COc1ccc(CNC(=O)C(=O)NCC(c2ccco2)S(=O)(=O)c2cccs2)cc1` (centres undefined), the activity change, negative = inhibition was inactive: 5.17%.
In the case of `COc1ccc(-n2c3c(cc(C(=O)NNc4ccccc4)c2=O)C(=O)CC(C)(C)C3)cc1`, the activity change, negative = inhibition was inconclusive: -41.2%.
In the case of `CCSc1nnc(C)n1-c1ccc(C(=O)O)cc1`, the activity change, negative = inhibition was inconclusive: -47.5%.
For `O=C1NN(c2ccccc2)C(=O)/C1=C/c1ccc(-c2ccc(Cl)c(C(=O)O)c2)o1`, the activity change, negative = inhibition was inconclusive: -43.3%.
In the case of `O=C(N=Nc1c(O)[nH]c2ccccc12)c1cccc(S(=O)(=O)Nc2ccccc2Cl)c1`, the activity change, negative = inhibition was active: -71.8%.
In the case of `CCN(CC)C(=O)c1sc(NC(=O)C(C)C)c(C#N)c1C`, the activity change, negative = inhibition was inconclusive: -41.2%.
With `c1ccc(-c2ccc3c(c2)c2c4n3CCN=C4CCC2)cc1` the activity change, negative = inhibition was inactive: -15.1%.
With `Cc1[nH]n(-c2ccccc2)c(=S)c1C=NCCCN=Cc1c(C)[nH]n(-c2ccccc2)c1=S` the activity change, negative = inhibition was inactive: 29.3%.
With `O=C(NCCc1ccco1)C(=O)NCC1OCCCN1S(=O)(=O)c1ccc(F)cc1` (centres undefined) the activity change, negative = inhibition was inconclusive: -49.8%.
For `O=C(NCCCCNC(=O)c1cccnc1Cl)c1cccnc1Cl`, the activity change, negative = inhibition was inconclusive: -40.5%.
In the case of `O=C(O)CC/C(=N\Nc1ccc([N+](=O)[O-])cc1)c1ccccc1`, the activity change, negative = inhibition was inconclusive: -53.6%.
In the case of `COc1ccc(C(=O)Nc2cccc(OC)c2)cc1`, the activity change, negative = inhibition was inactive: 143%.
For `O=CNc1cc(-c2cccc(F)c2)cn2c(-c3ccc(F)cc3)cnc12`, the activity change, negative = inhibition was inconclusive: -42.2%.
With `COC(=O)C1=CN(c2ccc(F)cc2)C=C(C(=O)OC)C1c1cccc(Br)c1` the activity change, negative = inhibition was inactive: 3.45%.
For `COc1ccccc1N1CCN(/N=C(\C)c2ccc(O)cc2)CC1`, the activity change, negative = inhibition was inactive: -23.8%.
For `C[C@@]12C(=O)Nc3cc(Cl)ccc3C(=O)N1[C@H]1c3cc(Br)ccc3OC[C@@H]1[C@@H]2c1ccccc1`, the activity change, negative = inhibition was active: -64.3%.
For `Cc1cccc(N2CCN(Cc3nc(-c4cccc(Cl)c4)oc3C)CC2)n1`, the activity change, negative = inhibition was inactive: 0%.
With `CCOc1cc(/C=N\NC(=O)c2ccc(NC(=O)CC)cc2)ccc1OC(=O)c1ccccc1` the activity change, negative = inhibition was inconclusive: -57.5%.
In the case of `COc1ccc(CCn2ccc(O)c(Cc3c(F)cccc3Cl)c2=O)cc1OC`, the activity change, negative = inhibition was inconclusive: -58.7%.
In the case of `CN(C)S(=O)(=O)c1ccc(NC(=O)CCNC(=O)c2ccco2)cc1`, the activity change, negative = inhibition was inactive: 4.55%.
For `C=C(C)CNC(=S)Nc1cccc2cnccc12`, the activity change, negative = inhibition was inconclusive: -49.5%.
In the case of `Cc1ccccc1Cn1c(=O)n(Cc2ccco2)c(=O)c2sc3ccccc3c21`, the activity change, negative = inhibition was active: -69.4%.
In the case of `CCN(c1cccc(C)c1)S(=O)(=O)c1ccc2c(c1)N(C(C)=O)CCS2`, the activity change, negative = inhibition was active: -69.6%.
